About 7,700 (2.3%) of roughly 330,000 compounds were called active. The shares of active, inactive and inconclusive entries below differ from those in the screen. The call rests on the fitted dose curve; in most records, active means well fitted inhibition curve with a large enough effect; inconclusive means small, poorly fitted or top-dose-only effect, or effect the other way; inactive means flat fitted curve, though single readings scatter. A potency beside an inconclusive call is a rough fit, not a confirmed value.
Experiment: qHTS screen for small molecules that inhibit ELG1-dependent DNA repair in human embryonic kidney (HEK293T) cells expressing luciferase-tagged ELG1; further: nearly all actives have a fitted effect of over 55% in size
Conditions: HEK293T ELG1-luciferase reporter, luminescence, 16 h, DNA damage induced by 5-fluorouridine; series mostly up to 46.1 µM
Summary of the method: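 5-Fluorouridine DNA damage + compound/DMSO, 2,000 cells/well, 16 h, 37 °C/5% CO2. ONE-Glo, 30 min RT, luminescence. Readout = decrease in reporter signal.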
Potency means the concentration at half of the fitted maximal effect.

SMILES	Potency
CCCCn1c(O)c(/C=N/N2CCOCC2)c(=O)[nH]c1=S	inactive
Cc1nn(Cc2ccccc2Cl)c(Cl)c1C(=O)OC(C(=O)NC(N)=O)C(C)C (centres undefined)	inconclusive: 23.1 µM [inhibitor, partial curve]
O=C(NC1(C(F)(F)F)Oc2ccccc2O1)N1CCC2(CC1)OCCO2	inconclusive: 25.9 µM [inhibitor, partial curve]
O=C(C(=C1N(Cc2ccc(Cl)nc2)CCN1Cc1ccc(Cl)nc1)[N+](=O)[O-])C(Cl)Cl	inactive
COc1ccc(C2CC(c3cccs3)=NN2c2nc(C)c(C(C)=O)s2)cc1OC (centres undefined)	inconclusive: 8.2 µM [activator, partial curve]
O=C1NC(=O)N(Cc2ccco2)C(=O)/C1=C\c1ccc(-c2ccc(F)cc2)o1	inconclusive: 23.1 µM [activator, single point]
CC1(O)CCN2C(=O)CCc3cccc1c32 (centres undefined)	inconclusive: 8.2 µM [inhibitor, partial curve, poor fit]
COC(=O)C1=C(c2ccc(OCc3ccccc3)cc2)C[C@@H]2CC[C@H]1N2C(=O)NCc1cccc(C(F)(F)F)c1	inconclusive: 5.17 µM [inhibitor, single point]
COc1cc(C=C2C(=O)NC(=O)NC2=O)ccc1O	inactive
CCC/C=N/O	inconclusive: 9.2 µM [activator, partial curve, poor fit]
CCN(CC)C(=O)COc1cc(C)cc2oc(=O)c3c(c12)CCCC3	inconclusive: 29.1 µM [inhibitor, partial curve, poor fit]
O=C(OCC#CCSc1nnc(-c2ccccc2)o1)c1ccco1	inconclusive: 18.4 µM [activator, single point]
CCCCOc1ccc(CCN)cc1Cl	inconclusive: 16.4 µM [activator, single point]
C/C=C(\C)C(=O)OC1C(C)=C2C(C1OC(=O)CCCCC)C(C)(OC(C)=O)CC(OC(=O)CCC)C1(O)C2OC(=O)C1(C)O (centres undefined)	inconclusive: 20.6 µM [inhibitor, single point]
COc1ccccc1N1C(=O)NC(=O)/C(=C\c2cnn(-c3ccccc3)c2)C1=O	inactive
CN(C)CCNC(=O)c1cccn(Cc2cccc(C(F)(F)F)c2)c1=O	inactive
CCCOP(=O)(c1ccc(N(C)C)cc1)C(O)c1ccc(Cl)cc1Cl (centres undefined)	inconclusive: 32.6 µM [inhibitor, partial curve, poor fit]
CC(C)OCCCNC(=O)c1c(N)n(Cc2cccs2)c2nc3ccccc3nc12	active: 16.4 µM
O=C1NC(=O)N(CCC2=CCCCC2)C(=O)/C1=C\c1cccs1	inactive
C[C@]12CC[C@H]3C(=CCc4cc(O)ccc43)[C@@H]1CCC2=O	inconclusive: 11.6 µM [activator, partial curve]
CCN(CC)c1ccc([N+](=O)[O-])c2cccnc12	inconclusive: 29.1 µM [inhibitor, single point]
CC(N)Cc1ccccc1Sc1ccc(O)cc1 (centres undefined)	inconclusive: 8.2 µM [inhibitor, partial curve, poor fit]

2 successive compounds from above, quoted:
SMILES	Potency
O=C(NC1(C(F)(F)F)Oc2ccccc2O1)N1CCC2(CC1)OCCO2	inconclusive: 25.9 µM [inhibitor, partial curve]
O=C(C(=C1N(Cc2ccc(Cl)nc2)CCN1Cc1ccc(Cl)nc1)[N+](=O)[O-])C(Cl)Cl	inactive

The list continues.

SMILES	Potency
CC#CP(=O)(OCC)C(O)(c1ccccc1)C(F)(F)F (centres undefined)	inconclusive: 20.6 µM [activator, partial curve, poor fit]
COc1ccc(N2C(=O)CC(N3CCC(n4c(=O)[nH]c5ccccc54)CC3)C2=O)cc1 (centres undefined)	inactive
C=CCNC(=O)c1c(N)n(CCN2CCOCC2)c2nc3ccccc3nc12	inactive
CCNc1cc(N2CCN(C)CC2)ccc1[N+](=O)[O-]	inactive
Cc1ccccc1N1C(=O)/C(=C/c2ccco2)C(=O)NC1=S	inactive
CC(=O)c1ccc2c(c1)C1C(Cl)C(Sc3ccccc3[N+](=O)[O-])CC1C(c1ccccc1[N+](=O)[O-])N2 (centres undefined)	active: 4.11 µM
O=S(=O)(c1ccccc1C(F)(F)F)N1CCN(c2ncnc3sccc23)CC1	active: 16.4 µM
COc1cccc(-n2c(/C=C/c3ccc(O)c(O)c3)nc3ccccc3c2=O)c1	active: 8.2 µM
CC(C)NS(=O)(=O)c1ccc(OCC(=O)N2CCN(Cc3ccc4c(c3)OCO4)CC2)c(Cl)c1	active: 11.6 µM
CCN(CC)CCNC(=O)c1c(O)c2ccccc2n(Cc2ccccc2)c1=O	inactive
COc1ccc(N2C(=O)/C(=C/c3cc(C)n(-c4ccc(C)cn4)c3C)C(=O)NC2=S)c(OC)c1	inconclusive: 23.1 µM [activator, partial curve, poor fit]
CN1CCN(C(=O)COc2ccc3ccccc3c2)CC1	inconclusive: 13 µM [activator, partial curve, poor fit]
COC(=O)C1=C(c2ccc(F)cc2F)C[C@@H]2CC[C@H]1N2C(=O)NCc1ccc(F)cc1	inactive
C[C@]12CCC(=O)C=C1CC[C@@H]1[C@@H]2CC[C@]2(C)C(=O)CC[C@@H]12	inactive
CC(=O)OC(C)(C)/C=C/C(=O)C(C)(O)C1[C@H](O)C[C@@]2(C)C3CC=C4C(CC[C@@H](O)C4(C)C)[C@]3(CO)C(=O)C[C@]12C (some centres undefined)	inconclusive: 14.6 µM [inhibitor, single point]
COc1ccc(CCNC(=O)c2c(N)n(CCN3CCOCC3)c3nc4ccccc4nc23)cc1	inconclusive: 16.4 µM [inhibitor, partial curve]
CCCCn1c(O)c(C(C)=Nc2ccc3c(c2)CCC3)c(=O)[nH]c1=O	inconclusive: 16.4 µM [inhibitor, partial curve, poor fit]
O=[N+]([O-])c1cccc(C2N3CCCN23)c1 (centres undefined)	inactive
COc1cc2[nH]c(C(=O)N3CCC4(CC3)OCCO4)cc2c(OC)c1OC	inconclusive: 14.6 µM [activator, partial curve]
Cc1ccc(C2=NCC(=O)N(CC(=O)N3CCCCC3)c3sc(C)c(C)c32)cc1	inconclusive: 29.1 µM [inhibitor, partial curve, poor fit]
COc1ccc(N2C(=O)NC(=O)/C(=C\c3ccc([N+](=O)[O-])s3)C2=O)cc1	inactive
O=c1c2ccccc2nc(-c2ccccc2)n1-c1ccccc1O	inactive
